Source: patent US20220195418

Target: T7 RNA polymerase P314T (starting PACE enzyme) (bacteriophage T7) (UniProt P00573)
Experiment: activity in cells
Settings: protein in cells, only the site is given

Sequence: AATTAACCCTCACTAAA (double strand) [T3 promoter]
- activity on this sequence (lacZ reporter, undetectable, relative to starting RNAP on T7 promoter): < 3%

Sequence: TAATACGACTCACTATAAAAAAA (double strand) [T7 promoter iA6 (A at +1 to +6)]
- activity on this sequence (undetectable initial activity of starting RNAP, variant of T7 promoter): < 3%
